{"source": "patent US10238744B2", "about": "“High load dispersions” (Austin Research Labs Corp., priority 2011, dated 2019)", "system": "S. aureus 6538", "test": "Time Kill of clay/polymer-BTC formulations", "format": "cell-based", "experimental": "Experiments were conducted during development of embodiments of the present invention to determine the difference in microbial reduction between an active ingredient bound to clay and a mixture of bound and free actives. A bentonite clay-benzethonium chloride (BTC) slurry was mixed by hydrating the clay in water, adding BTC solubilized in water, centrifuging and decanting the supernatant.\nBoth were added to an oil phase having the following components:\nThe Time Kill results are seen in Table 3:\nThe laponite mixtures were formed similarly to the bentonite described above. The Time Kill results are seen in Table 4:\nA commercially available hydrophobically modified polymer, Polymer SK-M from Dow (polyquaternium 67, quaternized hydroxyl ethyl cellulose modified with dimethyl-dodecyl hydrophobic functionality to prevent solution but retaining significant hydrophilic function), was used to replace the natural clays used in the examples discussed above. An SK-M-BTC slurry was formed by dry mixing BTC and SK-M then hydrating overnight in water. In an alternate mixing method, SK-M was expanded in hot water and cooled after adding the remaining water. BTC was then added and allowed to sit overnight. A mixture was formed adding the slurry to a water-GEOGARD ULTRA-gluconate mixture to complete the water phase. GEOGUARD ULTRA (Lonza) is a preservative containing glucolactone and sodium benzoate. […]", "data": [{"smiles": "CC(C)(C)CC(C)(C)c1ccc(OCCOCC[N+](C)(C)Cc2ccccc2)cc1", "note": "[BTC, benzethonium chloride]", "values": [{"measurement": "kill of S. aureus (in words)", "setting": "FIG. 1, bentonite experiment", "value": "fast kill"}, {"measurement": "kill of S. aureus (in words)", "setting": "FIG. 2, LAPONITE experiment", "value": "fast kill"}]}]}
